SMILES strings stand for the structures. Structures were worked out from names or drawings and are uncertain.

The chains behind the UniProt entries cited, without tags or fusion partners. Residues count along the entry.
UniProt P19099, 25-503 limits assumed: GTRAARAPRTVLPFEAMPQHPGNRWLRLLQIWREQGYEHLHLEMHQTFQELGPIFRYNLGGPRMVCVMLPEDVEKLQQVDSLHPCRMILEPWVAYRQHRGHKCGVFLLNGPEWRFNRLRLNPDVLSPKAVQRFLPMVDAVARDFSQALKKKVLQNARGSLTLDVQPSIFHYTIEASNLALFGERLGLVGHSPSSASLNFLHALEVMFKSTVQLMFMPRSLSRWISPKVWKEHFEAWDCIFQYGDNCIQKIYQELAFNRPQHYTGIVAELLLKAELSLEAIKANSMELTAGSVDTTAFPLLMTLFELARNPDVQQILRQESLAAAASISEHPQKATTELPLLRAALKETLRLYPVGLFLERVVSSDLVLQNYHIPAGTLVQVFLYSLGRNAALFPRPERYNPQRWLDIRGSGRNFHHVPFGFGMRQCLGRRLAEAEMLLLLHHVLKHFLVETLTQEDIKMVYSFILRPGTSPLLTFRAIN

Here are results for seven compounds from patent publication US10717731B2, “Nitrogen-containing aromatic heterocyclic compound” (MITSUBISHI TANABE PHARMA CORPORATION, priority 2015, dated 2020).

The target of the assay is human CYP11B2 (Homo sapiens, UniProt P19099). Nature of the assay: Inhibitory effect on hCYP11B2: aldosterone production in mitochondrial fraction of V79 cells stably expressing human CYP11B2, HTRF. In kind it is biochemical. The note with it: read-out: hCyp11B2 IC50; 0.5 μmol/L deoxycorticosterone, 150 μmol/L NADPH, 1.5-2 hours at room temperature. The method, then:
Experimental Example 1 (Inhibitory Effect on hCYP11B2)
The pcDNA3.1-human CYP11B2 plasmid was transfected into a Chinese hamster lung fibroblast V79 cell line to produce a cell line stably expressing human CYP11B2 gene.
The cells were cultured and grown in the Dulbecco's modified Eagle's/Ham's medium supplemented with 10% fetal bovine serum and 1% G418 disulfate solution under the environment of 37° C., 95% air, and 5% CO2, and the grown cells were harvested.
Then, the cells were fractionated to obtain mitochondria by reference to a method described in Chabre et al. JCE & M 85 (11) 4060-68, 2000. In particular, the cells suspended in a 5 mmol/L Tris-HCl buffer (pH 7.4) containing 250 mmol/L sucrose were homogenized in a Teflon (Registered Trademark) Potter Elvehjem homogenizer, and then the suspension was centrifuged (800×g, 15 min.). The supernatant was separated and again centrifuged (10000×g, 15 min.) to obtain a pellet (mitochondrial fraction).
The mitochondrial fraction diluted with a buffer containing 10 mmol/L KH2PO4, 10 mmol/L Tris, 20 mmol/L KCl, 25 mmol/L sucrose, 5 mmol/L MgCl2, and 0.05% bovine serum albumin was dispensed to a 96-well plate. 0.5 μmol/L Deoxycorticosterone, 150 μmol/L NADPH and a compound of each concentration were added to each well, and incubated for 1.5-2 hours at room temperature to produce aldosterone. An amount of the produced aldosterone in the incubated solution was determined by using HTRF (Homogeneous Time Resolved Fluorescence) method.
IC50 (nmol/L) was calculated by analyzing the aldosterone production inhibition rate (%) of each concentration of compounds by non-linear regression to a logistic curve.
A general note: TR-FRET usually uses a lanthanide donor and a delayed reading to cut background.
For `Cc1ccc(-c2cncc(N3CCN(CC(=O)Nc4cnn(CC(=O)N(C)C)c4)CC3)n2)cc1`, the IC50 (in general, the point on the concentration scale where inhibition reaches its midpoint) was determined as 9 nM.
Consider `CNC(=O)Cn1cc(NC(=O)CN2CCN(c3cncc(-c4ccc(Cl)cc4)c3)CC2)cn1`, for which the concentration for half-maximal inhibition (IC50) worked out at 3 nM.
In the case of `CC(C)NC(=O)CN1CCN(c2cncc(-c3ccc(C(F)(F)F)nc3)c2)CC1` it was 100 nM; in that of `O=C(CN1CCN(c2cncc(-c3ccc(Cl)cc3)c2)CC1)N[C@H]1CC[C@@H](N2CCC(O)CC2)CC1`, 8.8 nM.
In the case of `C[C@H](O)CNC(=O)CN1CCN(c2cncc(-c3ccc4cnn(C)c4c3)n2)CC1` [Example 18] it was 15 nM.
In the case of `CC(=O)N[C@H]1CC[C@@H](NC(=O)CN2CCN(c3cncc(-c4ccc(C)cc4)c3)CC2)CC1` it was 5.8 nM; in that of `CN1C2CCC1CC(NC(=O)CN1CCN(c3cncc(-c4ccc(Cl)cc4)c3)CC1)C2` (stereo not shown), 3.3 nM.
